{"source": "PubChem BioAssay AID1159584 (Peter MacCallum Cancer Centre, 2016)", "aim": "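Genes whose loss is lethal only together with E-cadherin loss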 (primary screen)", "cell system": "human MCF10A breast epithelial cells, parental and CDH1-null", "knock-down reagent": "siRNA against human genes", "measured": "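ATP luminescence (CellTiter-Glo) viability per line relative to mean mock wells over all plates, and the ratio of CDH1-null to parental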", "scale": "CDH1-null / parental viability ratio: higher = CDH1-null cells survive relatively better than parental; CDH1-null viability vs mock: higher = more viable CDH1-null cells", "units": "CDH1-null viability vs mock in fraction of mock", "note": "Here is an unselected part of about 18,000 reagents tested. Not all columns of the deposit are shown. The record does not give: the amount of reagent, the time to read-out."}
The first 3 entries, to show the layout:
{"gene knocked down": "IFNLR1", "CDH1-null / parental viability ratio": 0.9, "CDH1-null viability vs mock": 0.72}
{"gene knocked down": "KIAA1958", "CDH1-null / parental viability ratio": 1.75, "CDH1-null viability vs mock": 0.91}
{"gene knocked down": "MRGPRF", "CDH1-null / parental viability ratio": 0.82, "CDH1-null viability vs mock": 0.53}

Main list, from the start:
{"gene knocked down": "IFNLR1", "CDH1-null / parental viability ratio": 0.9, "CDH1-null viability vs mock": 0.72}
{"gene knocked down": "KIAA1958", "CDH1-null / parental viability ratio": 1.75, "CDH1-null viability vs mock": 0.91}
{"gene knocked down": "MRGPRF", "CDH1-null / parental viability ratio": 0.82, "CDH1-null viability vs mock": 0.53}
{"gene knocked down": "OR2T27", "CDH1-null / parental viability ratio": 1.13, "CDH1-null viability vs mock": 1.04}
{"gene knocked down": "MAGI2", "CDH1-null / parental viability ratio": 1.01, "CDH1-null viability vs mock": 0.89}
{"gene knocked down": "ALDOC", "CDH1-null / parental viability ratio": 1.09, "CDH1-null viability vs mock": 0.98}
{"gene knocked down": "HILPDA", "CDH1-null / parental viability ratio": 1.03, "CDH1-null viability vs mock": 0.64}
{"gene knocked down": "CDK19", "CDH1-null / parental viability ratio": 0.94, "CDH1-null viability vs mock": 0.82}
{"gene knocked down": "HSP90B1", "CDH1-null / parental viability ratio": 0.98, "CDH1-null viability vs mock": 0.95}
{"gene knocked down": "GNAQ", "CDH1-null / parental viability ratio": 1.29, "CDH1-null viability vs mock": 0.98}
{"gene knocked down": "KRTAP12-1", "CDH1-null / parental viability ratio": 0.93, "CDH1-null viability vs mock": 0.78}
{"gene knocked down": "SNX14", "CDH1-null / parental viability ratio": 1.13, "CDH1-null viability vs mock": 0.88}
{"gene knocked down": "EIF4ENIF1", "CDH1-null / parental viability ratio": 0.7, "CDH1-null viability vs mock": 0.66}
{"gene knocked down": "FFAR3", "CDH1-null / parental viability ratio": 0.76, "CDH1-null viability vs mock": 0.79}
{"gene knocked down": "STS", "CDH1-null / parental viability ratio": 0.76, "CDH1-null viability vs mock": 0.61}
{"gene knocked down": "PSG4", "CDH1-null / parental viability ratio": 0.96, "CDH1-null viability vs mock": 0.65}
{"gene knocked down": "FTCD", "CDH1-null / parental viability ratio": 0.94, "CDH1-null viability vs mock": 0.68}
{"gene knocked down": "CACYBP", "CDH1-null / parental viability ratio": 1.04, "CDH1-null viability vs mock": 0.87}
{"gene knocked down": "NR1D1", "CDH1-null / parental viability ratio": 1.12, "CDH1-null viability vs mock": 0.9}
{"gene knocked down": "CCDC148", "CDH1-null / parental viability ratio": 1.17, "CDH1-null viability vs mock": 0.96}
{"gene knocked down": "NMU", "CDH1-null / parental viability ratio": 0.98, "CDH1-null viability vs mock": 0.9}
{"gene knocked down": "SPARC", "CDH1-null / parental viability ratio": 0.86, "CDH1-null viability vs mock": 0.99}
{"gene knocked down": "KCTD17", "CDH1-null / parental viability ratio": 0.99, "CDH1-null viability vs mock": 0.68}
{"gene knocked down": "DMXL1", "CDH1-null / parental viability ratio": 1.25, "CDH1-null viability vs mock": 1.09}
{"gene knocked down": "NSUN7", "CDH1-null / parental viability ratio": 1.07, "CDH1-null viability vs mock": 0.88}
{"gene knocked down": "ZNF271P", "CDH1-null / parental viability ratio": 1, "CDH1-null viability vs mock": 0.6}
{"gene knocked down": "TIAL1", "CDH1-null / parental viability ratio": 0.89, "CDH1-null viability vs mock": 0.78}
{"gene knocked down": "CASP3", "CDH1-null / parental viability ratio": 1.03, "CDH1-null viability vs mock": 0.94}
{"gene knocked down": "SLC25A51", "CDH1-null / parental viability ratio": 1.06, "CDH1-null viability vs mock": 0.7}
{"gene knocked down": "S100A7P3", "CDH1-null / parental viability ratio": 0.98, "CDH1-null viability vs mock": 0.62}
{"gene knocked down": "SIRPB1", "CDH1-null / parental viability ratio": 0.63, "CDH1-null viability vs mock": 0.44}
{"gene knocked down": "SSH3", "CDH1-null / parental viability ratio": 1.45, "CDH1-null viability vs mock": 0.9}
{"gene knocked down": "ACAD8", "CDH1-null / parental viability ratio": 0.74, "CDH1-null viability vs mock": 0.64}
{"gene knocked down": "FAM181B", "CDH1-null / parental viability ratio": 0.99, "CDH1-null viability vs mock": 0.85}
{"gene knocked down": "PAPOLG", "CDH1-null / parental viability ratio": 0.94, "CDH1-null viability vs mock": 0.89}
